The M2OR odorant receptor database
The entries are a selection whose mix differs from that of the whole data set. Calls are pooled over several reports, among them a noisy single-well screen.

Protein sequences, listed by entry. Tags and fused reporters are not part of them. Lines headed by an entry give the natural chain unless they say otherwise; changes in a name come on top.
UniProt Q8NGT0: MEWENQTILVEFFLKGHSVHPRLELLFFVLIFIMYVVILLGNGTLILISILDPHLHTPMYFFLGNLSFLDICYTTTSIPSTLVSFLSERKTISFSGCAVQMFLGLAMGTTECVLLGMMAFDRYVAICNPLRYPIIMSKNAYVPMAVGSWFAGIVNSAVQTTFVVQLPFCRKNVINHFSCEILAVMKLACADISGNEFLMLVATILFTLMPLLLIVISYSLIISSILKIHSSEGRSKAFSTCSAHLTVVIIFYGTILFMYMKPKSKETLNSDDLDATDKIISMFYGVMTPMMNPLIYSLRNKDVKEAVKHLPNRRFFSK
UniProt Q8NGV5: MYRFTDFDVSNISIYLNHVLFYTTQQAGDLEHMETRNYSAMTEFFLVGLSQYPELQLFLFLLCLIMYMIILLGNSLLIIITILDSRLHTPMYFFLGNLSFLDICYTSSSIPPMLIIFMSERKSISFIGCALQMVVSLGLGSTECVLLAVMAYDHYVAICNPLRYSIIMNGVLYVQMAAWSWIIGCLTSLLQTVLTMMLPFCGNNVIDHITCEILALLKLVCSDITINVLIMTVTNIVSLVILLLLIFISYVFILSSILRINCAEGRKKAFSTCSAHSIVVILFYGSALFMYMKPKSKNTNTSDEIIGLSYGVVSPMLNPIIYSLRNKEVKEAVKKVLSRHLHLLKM
UniProt Q8NGS4: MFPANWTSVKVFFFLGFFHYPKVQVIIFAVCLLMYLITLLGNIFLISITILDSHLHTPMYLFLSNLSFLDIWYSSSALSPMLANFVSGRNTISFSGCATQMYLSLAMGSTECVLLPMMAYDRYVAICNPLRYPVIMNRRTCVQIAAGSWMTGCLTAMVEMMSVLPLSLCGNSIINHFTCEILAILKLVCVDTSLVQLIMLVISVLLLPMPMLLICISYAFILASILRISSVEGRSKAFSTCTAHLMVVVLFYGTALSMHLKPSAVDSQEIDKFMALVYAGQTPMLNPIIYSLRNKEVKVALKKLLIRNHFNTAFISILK
UniProt Q8NGZ3: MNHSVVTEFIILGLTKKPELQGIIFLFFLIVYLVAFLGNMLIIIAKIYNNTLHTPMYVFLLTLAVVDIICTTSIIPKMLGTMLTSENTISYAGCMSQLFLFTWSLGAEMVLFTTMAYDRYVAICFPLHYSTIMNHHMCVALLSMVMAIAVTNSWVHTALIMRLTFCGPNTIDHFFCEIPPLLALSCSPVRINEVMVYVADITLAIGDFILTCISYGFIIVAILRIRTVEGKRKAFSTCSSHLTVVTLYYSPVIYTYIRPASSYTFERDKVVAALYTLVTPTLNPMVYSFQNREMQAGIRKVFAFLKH

How the values were obtained:
Conditions in all cases: stereoisomer not certain
[1] = biological target: T1, OR13C2 (Homo sapiens) (UniProt Q8NGS9)
T1 sequence (whole entry): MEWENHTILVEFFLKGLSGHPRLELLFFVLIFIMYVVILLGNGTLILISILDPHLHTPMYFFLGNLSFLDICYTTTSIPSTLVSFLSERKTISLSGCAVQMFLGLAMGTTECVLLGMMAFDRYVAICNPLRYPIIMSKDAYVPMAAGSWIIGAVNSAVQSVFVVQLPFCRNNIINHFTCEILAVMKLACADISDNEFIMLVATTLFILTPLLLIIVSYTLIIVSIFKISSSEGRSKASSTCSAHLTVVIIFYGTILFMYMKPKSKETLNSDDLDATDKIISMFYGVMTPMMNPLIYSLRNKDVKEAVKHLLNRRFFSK
Procedure, shortened: (§1)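 Whether a receptor–molecule pair is responsive (active) rests on the original authors' judgment that its measured signal was statistically different from baseline. Pairs without that judgment are non-responsive (inactive). Sources used varied assay methods, commonly transient luciferase assays in mammalian cell lines.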

[2] = biological target: T2, OR13C3 (Homo sapiens) (UniProt Q8NGS6)
T2 sequence (whole entry): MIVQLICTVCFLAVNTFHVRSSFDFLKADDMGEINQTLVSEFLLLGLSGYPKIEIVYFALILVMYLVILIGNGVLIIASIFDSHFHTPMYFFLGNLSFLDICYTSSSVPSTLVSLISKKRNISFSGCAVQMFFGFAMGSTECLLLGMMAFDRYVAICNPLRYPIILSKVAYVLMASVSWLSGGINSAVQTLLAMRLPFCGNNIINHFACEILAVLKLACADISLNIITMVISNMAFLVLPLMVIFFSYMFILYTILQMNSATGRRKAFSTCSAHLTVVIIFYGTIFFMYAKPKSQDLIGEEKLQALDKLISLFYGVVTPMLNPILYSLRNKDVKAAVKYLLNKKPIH
Procedure, shortened: as §1

[3] = biological target: T3, OR13C4 (Homo sapiens) (UniProt Q8NGS5)
T3 sequence (whole entry): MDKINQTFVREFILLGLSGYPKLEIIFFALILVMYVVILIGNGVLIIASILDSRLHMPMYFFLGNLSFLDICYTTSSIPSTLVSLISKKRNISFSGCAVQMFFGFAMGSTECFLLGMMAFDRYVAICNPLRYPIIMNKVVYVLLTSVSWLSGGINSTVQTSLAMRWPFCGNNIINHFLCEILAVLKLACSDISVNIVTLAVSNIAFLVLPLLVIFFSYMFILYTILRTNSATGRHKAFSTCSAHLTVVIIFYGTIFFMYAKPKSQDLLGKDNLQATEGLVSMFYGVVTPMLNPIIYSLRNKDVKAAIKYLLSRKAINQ
Procedure, shortened: as §1

[4] = biological target: T4, OR13C8 (Homo sapiens) (UniProt Q8NGS7)
T4 sequence (whole entry): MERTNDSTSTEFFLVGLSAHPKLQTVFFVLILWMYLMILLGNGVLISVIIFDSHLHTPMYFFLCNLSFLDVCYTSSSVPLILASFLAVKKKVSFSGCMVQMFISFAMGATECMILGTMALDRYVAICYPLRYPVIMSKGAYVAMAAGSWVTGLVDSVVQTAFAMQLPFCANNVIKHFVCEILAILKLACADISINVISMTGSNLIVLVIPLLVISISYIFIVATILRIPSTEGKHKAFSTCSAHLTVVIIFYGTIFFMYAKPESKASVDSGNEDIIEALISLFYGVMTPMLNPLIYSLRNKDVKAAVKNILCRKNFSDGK
Procedure, shortened: as §1

[5] = biological target: T5, OR13H1 (Homo sapiens) (UniProt Q8NG92)
T5 sequence (whole entry): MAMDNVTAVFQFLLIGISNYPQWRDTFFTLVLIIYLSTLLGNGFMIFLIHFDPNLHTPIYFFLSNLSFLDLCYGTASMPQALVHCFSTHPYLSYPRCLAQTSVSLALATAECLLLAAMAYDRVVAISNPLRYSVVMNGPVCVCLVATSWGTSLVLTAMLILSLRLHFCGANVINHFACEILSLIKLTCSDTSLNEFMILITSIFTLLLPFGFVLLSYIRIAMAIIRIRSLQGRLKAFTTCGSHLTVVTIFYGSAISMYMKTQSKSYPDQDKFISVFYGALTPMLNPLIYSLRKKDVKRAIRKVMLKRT
Procedure, shortened: as §1

[6] = biological target: OR13C5 (Homo sapiens) (UniProt Q8NGS8)
Procedure, shortened: as §1

[7] = biological target: OR13C9 (Homo sapiens) (UniProt Q8NGT0)
Procedure, shortened: as §1

[8] = biological target: OR13D1 (Homo sapiens) (UniProt Q8NGV5)
Procedure, shortened: as §1

[9] = biological target: OR13F1 (Homo sapiens) (UniProt Q8NGS4)
Procedure, shortened: as §1

[10] = biological target: OR13G1 (Homo sapiens) (UniProt Q8NGZ3)
Procedure, shortened: as §1
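Also: active if original authors judged signal statistically different from baseline.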

Structure (SMILES) | odorant receptor agonist call [1] | odorant receptor agonist call [2] | odorant receptor agonist call [3] | odorant receptor agonist call [4] | odorant receptor agonist call [5] | odorant receptor agonist call [6] | odorant receptor agonist call [7] | odorant receptor agonist call [8] | odorant receptor agonist call [9] | odorant receptor agonist call [10]
C=C(C)C1CCC2=CC(=O)CC(C)C2(C)C1 (stereo unspecified) | inactive | – | – | – | – | – | – | – | – | –
CC12CCC(C1)C(C)(C)C2=O (stereo unspecified) | inactive | inactive | inactive | inactive | inactive | – | – | – | – | –
C=CC(C)(O)CCC=C(C)C (stereo unspecified) | inactive | inactive | inactive | inactive | inactive | – | – | – | – | –
COc1cc(C)ccc1O | inactive | inactive | inactive | inactive | inactive | – | – | – | – | –
CC1CCC(C(C)C)C(O)C1 (stereo unspecified) | inactive | inactive | inactive | inactive | active | – | – | – | – | –
COc1ccccc1O | inactive | inactive | inactive | inactive | inactive | – | – | – | – | –
CCCCCCCCCCC=O | inactive | inactive | inactive | inactive | inactive | – | – | – | – | –
c1ccc(Oc2ccccc2)cc1 | inactive | inactive | inactive | inactive | inactive | – | – | – | – | –
CC(C)CCC(=O)O | inactive | inactive | inactive | inactive | inactive | – | – | – | – | –
CC=Cc1ccc(O)c(OC)c1 | active | inactive | inactive | active | inactive | – | – | – | – | –
CCCCCCCC=CC=O | inactive | inactive | inactive | inactive | inactive | – | – | – | – | –
CC1=CCC(C(C)(C)O)CC1 (stereo unspecified) | inactive | inactive | inactive | inactive | inactive | – | – | – | – | –
CC(=O)OC1CC2CCC1(C)C2(C)C (stereo unspecified) | active | inactive | inactive | inactive | inactive | – | – | – | – | –
CC(C)CC(=O)O | inactive | inactive | inactive | inactive | inactive | – | – | – | – | –
CC(C)=CCCC(C)=CC=O | inactive | inactive | inactive | inactive | inactive | – | – | – | – | –
c1cnccn1 | inactive | inactive | inactive | inactive | inactive | – | – | – | – | –
CCC1(O)C2(C)CCC(C2)C1(C)C (stereo unspecified) | inactive | inactive | inactive | inactive | inactive | – | – | – | – | –
CCCCCCCCOC(C)=O | inactive | inactive | inactive | inactive | inactive | – | – | – | – | –
CCCCCCCOC(C)=O | inactive | inactive | inactive | inactive | inactive | – | – | – | – | –
CC12C=CCC1C1CCC3CC(=O)CCC3(C)C1CC2 (stereo unspecified) | inactive | inactive | inactive | inactive | inactive | inactive | inactive | inactive | inactive | inactive
O=CCc1ccccc1 | active | inactive | inactive | inactive | inactive | – | – | – | – | –
CC12C=CCC1C1CCC3=CC(=O)CCC3(C)C1CC2 (stereo unspecified) | inactive | inactive | inactive | inactive | inactive | – | – | – | – | –
C=CCc1ccc(OC(C)=O)c(OC)c1 | active | inactive | inactive | inactive | inactive | – | – | – | – | –
CCCCO | inactive | inactive | inactive | inactive | inactive | – | – | – | – | –
C=CCc1ccc(OC)c(OC)c1 | inactive | inactive | inactive | inactive | inactive | – | – | – | – | –

Compounds listed so far containing a COOH group (2):
Structure (SMILES) | odorant receptor agonist call [1] | odorant receptor agonist call [2] | odorant receptor agonist call [3] | odorant receptor agonist call [4] | odorant receptor agonist call [5] | odorant receptor agonist call [6] | odorant receptor agonist call [7] | odorant receptor agonist call [8] | odorant receptor agonist call [9] | odorant receptor agonist call [10]
CC(C)CCC(=O)O | inactive | inactive | inactive | inactive | inactive | – | – | – | – | –
CC(C)CC(=O)O | inactive | inactive | inactive | inactive | inactive | – | – | – | – | –
